Where two headings read alike, the source gives them in different places.

One data set has as its system MDA-MB-231 cells. Briefly: MTT cell viability assay with Chou-Talalay median-effect / combination index analysis. (Tetrazolium assays rely on reduction of a dye to a coloured formazan, in cell work by metabolically active cells.)
The test system of another data set is MCF-7 cells. The description is as above.
[1] abbreviates: individual cannabinoids, 48 hours, MTT.

Consider `CCCCCc1cc(O)c2c(c1)OC(C)(C)[C@@H]1CCC(C)=C[C@@H]21` [THC, Δ^9-tetrahydrocannabinol], for which the “m (slope of the median-effect plot)” value is reported as 4.46 in the data set on MDA-MB-231 cells and 3.77 in the data set on MCF-7 cells.
`CCCCCc1cc(O)c2c(c1)OC(C)(C)c1ccc(C)cc1-2` [CBN, cannabinol]: the “m (slope of the median-effect plot)” value in the data set on MDA-MB-231 cells (setting [1]) came to 8.34; with MCF-7 cells (setting [1]), 8.63.
On to `CCCCCc1cc(O)c(C/C=C(\C)CCC=C(C)C)c(O)c1` [CBG, cannabigerol], for which the figures for the “m (slope of the median-effect plot)” value in the data set on MDA-MB-231 cells (setting [1]) and in the data set with MCF-7 cells (setting [1]) were 9.08 and 5.38, respectively.
The like results for `C=C(C)[C@@H]1CCC(C)=C[C@H]1c1c(O)cc(CCCCC)cc1O` [CBD, cannabidiol] were, in that order, 1.88 and 2.86.

The values are drawn from patent EP4203925B1, “CANNABINOID COMBINATIONS AND THEIR USE IN THE TREATMENT OF CANCER” (priority 2020, dated 2022).
